# From PubChem BioAssay AID463206 (Broad Institute, 2010)
# This is one part of the list. Entries with a potency or affinity are not part of this list. Where no call is shown, the source marks the result inconclusive.
# Test: suppression of cytokine-driven beta-cell apoptosis – INS-1E rat cells, luminescence, orthogonal assay for beta-cell apoptosis protection project, dose response (AID 463206)
# Conditions: INS-1E cytokine-induced caspase-3/7, Caspase-Glo luminescence, 48 h; at 26 µM (top of the series) unless noted
row,SMILES,"activity change, negative = inhibition"
1,CCN1/C(=C\C=C\C2=[N+](CC)c3ccccc3C2(C)C)C(C)(C)c2ccccc21,51.8%
2,CC(C)(C)c1ccc(CSc2cnn(C(C)(C)C)c(=O)c2Cl)cc1,48%
3,COc1cc2c(cc1OC)[C@@H]1C(=O)c3ccc4c(c3O[C@@H]1CO2)C[C@H](C(C)C)O4,51.3% [at 12 µM]
